Results are given in words; binding and its absence hold for the method and conditions named. A result given as binding can be weak or reduced; the word gives no strength.
Biological target: amylin receptors of rat nucleus accumbens membranes (rat)
Assay: radioligand competition, rat nucleus accumbens membranes

binding: binds
Binder: LSTCVLGRLSQELHRLQTYPRTNTGSNTY (Synthetic 29-residue peptide) [Compound 1]

Reference: patent US6936584B1, “Mixed amylin activity compounds” (Amylin Pharmaceuticals, Inc., priority 1998, dated 2005)
